Here are results for one sequence from paper PMC6175878, “ROS-induced R loops trigger a transcription-coupled but BRCA1/2-independent homologous recombination pathway through CSB” (Nature Communications, 2018).

Protein sequences, listed by entry. Tags and fused reporters are not part of them. Residues count along the entry.
UniProt Q03468, 1200-1493: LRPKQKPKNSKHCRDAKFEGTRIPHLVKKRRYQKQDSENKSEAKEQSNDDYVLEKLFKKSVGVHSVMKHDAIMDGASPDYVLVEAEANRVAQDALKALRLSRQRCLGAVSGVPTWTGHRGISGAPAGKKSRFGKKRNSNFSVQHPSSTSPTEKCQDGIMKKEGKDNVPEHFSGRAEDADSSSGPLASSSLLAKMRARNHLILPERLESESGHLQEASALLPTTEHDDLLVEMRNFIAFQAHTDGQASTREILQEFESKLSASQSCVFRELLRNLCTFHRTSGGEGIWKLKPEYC
UniProt Q03468, 961-1493: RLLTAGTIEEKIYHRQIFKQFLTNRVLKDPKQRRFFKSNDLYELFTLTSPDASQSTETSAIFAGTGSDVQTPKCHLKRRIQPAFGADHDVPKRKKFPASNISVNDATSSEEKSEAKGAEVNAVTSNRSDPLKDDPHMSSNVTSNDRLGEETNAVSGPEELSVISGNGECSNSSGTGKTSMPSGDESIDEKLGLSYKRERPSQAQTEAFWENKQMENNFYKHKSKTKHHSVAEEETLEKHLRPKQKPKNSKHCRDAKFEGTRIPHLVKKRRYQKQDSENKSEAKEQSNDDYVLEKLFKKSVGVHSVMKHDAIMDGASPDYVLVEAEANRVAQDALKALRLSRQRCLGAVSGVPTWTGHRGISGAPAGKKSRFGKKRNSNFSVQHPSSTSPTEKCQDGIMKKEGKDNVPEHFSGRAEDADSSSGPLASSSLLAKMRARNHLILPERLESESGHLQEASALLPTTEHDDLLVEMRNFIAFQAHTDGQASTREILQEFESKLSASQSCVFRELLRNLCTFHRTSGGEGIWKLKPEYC
UniProt Q03468, 337-509: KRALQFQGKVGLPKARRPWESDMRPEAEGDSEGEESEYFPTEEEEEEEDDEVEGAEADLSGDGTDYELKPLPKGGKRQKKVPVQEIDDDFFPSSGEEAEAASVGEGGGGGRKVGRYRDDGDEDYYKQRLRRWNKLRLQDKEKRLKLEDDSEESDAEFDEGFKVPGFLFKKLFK

For at least one entry, the source does not settle the construct or the ends of the probe. Where cells or extracts were used, other partners may take part. For part of these data: Weaker means in comparison with the reference protein, sequence or condition of that experiment.

What all share (assay): pull-down
Data set [1] concerns the target GFP-CSB 1200-1493 (human) (UniProt Q03468). Particulars: cell lysate; pull-down: 20 mM Tris-HCl pH 7.5, 50 mM NaCl, 2 mM MgCl2, 0.1% Tween-20, 30% glycerol; protein in a lysate after overexpression; residues …; protein details: EGFP (N-term, pEGFP-C1); label: 3' biotin on oligo 3 (RNA); DNA:RNA hybrid.
A further data set has as its target GFP-CSB 961-1493 (human) (UniProt Q03468). Particulars: cell lysate; pull-down: 20 mM Tris-HCl pH 7.5, 50 mM NaCl, 2 mM MgCl2, 0.1% Tween-20, 30% glycerol; protein in a lysate after overexpression; residues 961-1493; protein details: EGFP (N-term, pEGFP-C1); label: 3' biotin on oligo 3 (RNA); DNA:RNA hybrid.
Data set [2] deals with GFP-CSB 337-509 (CSB-AD) (human) (UniProt Q03468). The conditions noted are these: cell lysate, captured less efficiently than C-terminal fragments, possibly indirect; pull-down: 20 mM Tris-HCl pH 7.5, 50 mM NaCl, 2 mM MgCl2, 0.1% Tween-20, 30% glycerol; protein in a lysate after overexpression; residues 337-509; protein details: EGFP (N-term, pEGFP-C1); label: 3' biotin on oligo 3 (RNA); DNA:RNA hybrid.

With “UGACUAAUCGAAGUUGAUACAUCGACGUUA / TAACGTCGATGTATCAACTTCGATTAGTCA [biotin DNA:RNA hybrid oligo 3/oligo 4]”, the figures for the binding result (in data set [1]; in the data set with GFP-CSB 961-1493 (human); in data set [2]) were “binds”, “binds” and “binds more weakly”, respectively.
